Reference: publication PMC3178645
No constants are given. Whether binding was seen depends on the method and setting. Binding seen in cells or lysates may run through a third protein. Some entries that bind do so weakly or less than the wild type.

Amino acid sequences for entries named in this document (tags omitted). Residues count along the entry.
UniProt Q6DN90: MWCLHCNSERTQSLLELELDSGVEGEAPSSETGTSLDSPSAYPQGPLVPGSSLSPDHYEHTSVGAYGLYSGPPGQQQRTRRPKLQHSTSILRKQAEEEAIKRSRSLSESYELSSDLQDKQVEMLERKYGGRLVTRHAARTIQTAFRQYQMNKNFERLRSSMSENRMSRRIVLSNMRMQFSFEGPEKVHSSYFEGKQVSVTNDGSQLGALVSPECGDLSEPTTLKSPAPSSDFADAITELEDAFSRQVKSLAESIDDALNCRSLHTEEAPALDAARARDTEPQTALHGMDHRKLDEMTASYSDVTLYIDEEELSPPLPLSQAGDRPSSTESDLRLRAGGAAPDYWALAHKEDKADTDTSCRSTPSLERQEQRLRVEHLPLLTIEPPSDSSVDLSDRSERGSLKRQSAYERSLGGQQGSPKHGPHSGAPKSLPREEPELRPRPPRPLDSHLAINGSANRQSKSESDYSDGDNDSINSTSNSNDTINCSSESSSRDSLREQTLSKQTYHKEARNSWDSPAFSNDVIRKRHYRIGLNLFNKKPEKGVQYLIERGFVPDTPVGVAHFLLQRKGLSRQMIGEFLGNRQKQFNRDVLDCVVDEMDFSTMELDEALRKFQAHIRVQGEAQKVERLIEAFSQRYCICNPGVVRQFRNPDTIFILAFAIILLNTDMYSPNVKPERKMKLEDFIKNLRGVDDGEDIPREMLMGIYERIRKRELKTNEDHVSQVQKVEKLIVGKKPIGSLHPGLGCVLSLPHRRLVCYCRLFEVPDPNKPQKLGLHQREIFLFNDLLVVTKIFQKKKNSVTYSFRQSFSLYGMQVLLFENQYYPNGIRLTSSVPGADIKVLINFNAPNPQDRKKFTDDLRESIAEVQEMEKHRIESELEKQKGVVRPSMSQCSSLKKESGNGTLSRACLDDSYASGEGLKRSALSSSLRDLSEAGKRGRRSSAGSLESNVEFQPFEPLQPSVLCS
UniProt Q99418, residues 261-387: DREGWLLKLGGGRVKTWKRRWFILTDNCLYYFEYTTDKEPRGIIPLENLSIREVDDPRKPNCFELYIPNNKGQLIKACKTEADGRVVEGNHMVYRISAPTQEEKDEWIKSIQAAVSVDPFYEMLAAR

Assays:
[1] = target: GEP100, endogenous in H522 lung adenocarcinoma cells (human (endogenous in H522)) (UniProt Q6DN90); test: co-IP; endogenous proteins, H522 cell lysates (250 ug); anti-GEP100 immunoprecipitation, anti-Her2 immunoblot; cells with serum or serum-starved 24 h
[2] = target: GEP100, endogenous in H522 lung adenocarcinoma cells (human (endogenous in H522)) (UniProt Q6DN90); test: co-IP; H522 cells expressing EGFP-GEP100-PH or EGFP alone; anti-GEP100 and anti-GFP immunoprecipitation from total cell lysates (250 ug), anti-Her2 immunoblot
[3] = target: GST-tagged ARNO PH domain (human) (UniProt Q99418); test: pull-down; 25 ug GST-fused PH domain on glutathione-beads incubated with 200 ug of lysate of cells expressing Her2-EGFP, GGA3 buffer, 4°C, 1 h; anti-GFP immunoblot; cells with serum, starved, or EGF; only the target purified

Substance | binding [1] | binding [2] | binding [3]
Her2, endogenous (overexpressed) in H522 lung adenocarcinoma cells (from UniProt P04626 23-1255) (receptor) | binds | binds | –
Her2 tagged with enhanced green fluorescence protein (EGFP) at the C-terminus, wild type (from UniProt P04626-1 23-1255) (receptor) | – | – | no binding
